Results are given in words; binding and its absence hold for the method and conditions named. In cells and extracts the contact can be indirect. Some results given as binding are weak or reduced against the parent protein; the word gives no strength. For some assays here: Tags and fused reporters may be left off the sequences shown.
B1: liver X receptor alpha (LXRα), full-length (protein, UniProt Q13133 1-447)
chain: MSLWLGAPVPDIPPDSAVELWKPGAQDASSQAQGGSSCILREEARMPHSAGGTAGVGLEAAEPTALLTRAEPPSEPTEIRPQKRKKGPAPKMLGNELCSVCGDKASGFHYNVLSCEGCKGFFRRSVIKGAHYICHSGGHCPMDTYMRRKCQECRLRKCRQAGMREECVLSEEQIRLKKLKRQEEEQAHATSLPPRASSPPQILPQLSPEQLGMIEKLVAAQQQCNRRSFSDRLRVTPWPMAPDPHSREARQQRFAHFTELAIVSVQEIVDFAKQLPGFLQLSREDQIALLKTSAIEVMLLETSRRYNPGSESITFLKDFSYNREDFAKAGLQVEFINPIFEFSRAMNELQLNDAEFALLIAISIFSADRPNVQDQLQVERLQHTYVEALHAYVSIHHPHDRLMFPRMLMKLVSLRTLSSVHSEQVFALRLQDKKLPPLLSEIWDVHE
B2: carbohydrate responsive element-binding protein alpha (ChREBPα), full-length (protein, UniProt Q99MZ3-1 1-864)
chain: MARALADLSVNLQVPRVVPSPDSDSDTDLEDPSPRRSAGGLHRSQVIHSGHFMVSSPHSDSLTRRRDQEGPVGLADFGPRSIDPTLTHLFECLSLAYSGKLVSPKWKNFKGLKLLCRDKIRLNNAIWRAWYIQYVQRRKSPVCGFVTPLQGSEADEHRKPEAVILEGNYWKRRIEVVMREYHKWRIYYKKRLRKSSREGDFLAPKQVEGGWPPPERWCEQLFSSVVPVLLGGSEEEPGGRQLLDLDCFLSDISDTLFTMTQPSPSSLQLPPEDAYVGNADMIQPDLTPLQPSLDDFMEISDFFTNYRPPQTPTSSNYIESPSFGPMADSLFSSGILAPEMPSPASSSSSSGMTPHSGNTRLQARNSCSGPLDPNPFLSSEFLLPEDPKTKIPPAPGPTPLLPFPTPVKVHGLEPCTPSPFPTMAPPPSLLPEESLLSARFPFTSAPPAPGVSTLPAPTTFVPTPQPGPGPVPFSVDHLPHGYLEPVFGPHFTVPQGMQPRCKPSSPSPGGQKASPPTLASATASPTATATARDNNPCLTQLLRAAKPEQALEPPTMPGTLLRPPESPQDTVSEIPRARAFFPPIPAPTPPRPPPGPATLAPPRSLVVPKAERLSPPASSGSERRLSGDLNSIQPSGALSVHLSPPQTVLSRGRVDNNKMENRRITHISAEQKRRFNIKLGFDTLHGLVSTLSAQPSLKVSKATTLQKTAEYILMLQQERAAMQEEAQQLRDEIEELNAAINLCQQQLPATGVPITHQRFDQMRDMFDDYVRTRTLHNWKFWVFSILIRPLFESFNGMVSTASLHSLRQTSLAWLEQYCSLPALRPTVLNSLRQLSTSTSILTDPSLVPEQATRAVTEGTLGRPL
B3: ChREBPα low glucose inhibitory domain (LID), amino acids 1-178 (domain or fragment, UniProt Q99MZ3-1 1-178)
chain: MARALADLSVNLQVPRVVPSPDSDSDTDLEDPSPRRSAGGLHRSQVIHSGHFMVSSPHSDSLTRRRDQEGPVGLADFGPRSIDPTLTHLFECLSLAYSGKLVSPKWKNFKGLKLLCRDKIRLNNAIWRAWYIQYVQRRKSPVCGFVTPLQGSEADEHRKPEAVILEGNYWKRRIEVVM
B4: LXRα truncation, amino acids 166-447 (C-terminus with hinge domain and LBD) (domain or fragment, UniProt Q13133 166-447)
chain: ECVLSEEQIRLKKLKRQEEEQAHATSLPPRASSPPQILPQLSPEQLGMIEKLVAAQQQCNRRSFSDRLRVTPWPMAPDPHSREARQQRFAHFTELAIVSVQEIVDFAKQLPGFLQLSREDQIALLKTSAIEVMLLETSRRYNPGSESITFLKDFSYNREDFAKAGLQVEFINPIFEFSRAMNELQLNDAEFALLIAISIFSADRPNVQDQLQVERLQHTYVEALHAYVSIHHPHDRLMFPRMLMKLVSLRTLSSVHSEQVFALRLQDKKLPPLLSEIWDVHE
B5: liver X receptor beta (LXRβ) (protein, UniProt P55055 1-460)
chain: MSSPTTSSLDTPLPGNGPPQPGAPSSSPTVKEEGPEPWPGGPDPDVPGTDEASSACSTDWVIPDPEEEPERKRKKGPAPKMLGHELCRVCGDKASGFHYNVLSCEGCKGFFRRSVVRGGARRYACRGGGTCQMDAFMRRKCQQCRLRKCKEAGMREQCVLSEEQIRKKKIRKQQQESQSQSQSPVGPQGSSSSASGPGASPGGSEAGSQGSGEGEGVQLTAAQELMIQQLVAAQLQCNKRSFSDQPKVTPWPLGADPQSRDARQQRFAHFTELAIISVQEIVDFAKQVPGFLQLGREDQIALLKASTIEIMLLETARRYNHETECITFLKDFTYSKDDFHRAGLQVEFINPIFEFSRAMRRLGLDDAEYALLIAINIFSADRPNVQEPGRVEALQQPYVEALLSYTRIKRPQDQLRFPRMLMKLVSLRTLSSVHSEQVFALRLQDKKLPPLLSEIWDVHE

Experiments:
[1] = target: T1, carbohydrate responsive element-binding protein alpha (ChREBPα), full-length (mouse) (UniProt Q99MZ3); test: co-IP
T1 sequence: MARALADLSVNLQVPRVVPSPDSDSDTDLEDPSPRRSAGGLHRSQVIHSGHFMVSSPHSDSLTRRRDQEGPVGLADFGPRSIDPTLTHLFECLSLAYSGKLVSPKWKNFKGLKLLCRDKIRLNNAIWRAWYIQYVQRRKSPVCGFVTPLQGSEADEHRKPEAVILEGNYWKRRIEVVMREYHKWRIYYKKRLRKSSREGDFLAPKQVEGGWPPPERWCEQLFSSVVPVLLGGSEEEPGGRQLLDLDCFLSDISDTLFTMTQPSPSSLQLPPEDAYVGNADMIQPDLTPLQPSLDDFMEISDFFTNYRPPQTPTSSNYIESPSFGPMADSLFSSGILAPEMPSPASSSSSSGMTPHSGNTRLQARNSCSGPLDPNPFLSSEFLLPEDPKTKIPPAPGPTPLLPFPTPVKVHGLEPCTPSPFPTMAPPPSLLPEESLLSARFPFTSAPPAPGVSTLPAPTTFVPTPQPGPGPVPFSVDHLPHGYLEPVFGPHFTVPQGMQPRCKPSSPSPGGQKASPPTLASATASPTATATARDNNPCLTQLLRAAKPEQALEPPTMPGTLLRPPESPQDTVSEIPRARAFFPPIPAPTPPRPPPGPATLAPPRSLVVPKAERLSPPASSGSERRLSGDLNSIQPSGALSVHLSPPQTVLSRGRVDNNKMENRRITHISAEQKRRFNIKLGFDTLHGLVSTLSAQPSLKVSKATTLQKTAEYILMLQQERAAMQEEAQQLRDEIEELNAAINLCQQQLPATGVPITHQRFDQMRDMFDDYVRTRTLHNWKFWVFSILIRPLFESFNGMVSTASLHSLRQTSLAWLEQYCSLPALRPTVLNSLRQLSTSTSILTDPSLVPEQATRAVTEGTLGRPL

[2] = target: T2, liver X receptor alpha (LXRα), full-length (not stated (human or mouse cDNA cloned)) (UniProt Q13133); test: co-IP
T2 sequence: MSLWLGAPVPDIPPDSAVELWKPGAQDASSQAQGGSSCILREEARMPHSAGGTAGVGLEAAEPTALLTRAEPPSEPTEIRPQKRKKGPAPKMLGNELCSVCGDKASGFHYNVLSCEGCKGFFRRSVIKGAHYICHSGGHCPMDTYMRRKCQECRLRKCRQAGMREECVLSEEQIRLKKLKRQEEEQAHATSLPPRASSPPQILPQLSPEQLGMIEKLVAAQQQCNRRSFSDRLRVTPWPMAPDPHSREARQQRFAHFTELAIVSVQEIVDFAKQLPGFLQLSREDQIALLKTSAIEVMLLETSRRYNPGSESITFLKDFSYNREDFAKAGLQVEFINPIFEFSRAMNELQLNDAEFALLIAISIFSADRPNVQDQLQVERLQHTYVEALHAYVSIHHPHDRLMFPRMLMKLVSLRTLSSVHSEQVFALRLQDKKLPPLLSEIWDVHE

| Binder | binding [1] | binding [2] |
| --- | --- | --- |
| B1 | binds | – |
| B2 | – | binds |
| B3 | – | binds |
| B4 | binds | – |
| B5 | binds | – |

From publication doi:10.1101/2019.12.20.869974
